In article PMC7062751:
These are yes or no findings as the source states them, for the method shown. Binding calls can cover weak binding; strength is not graded here. For some of these results: In cells and extracts the contact can be indirect. Each block holds one substance with its values, some of them ahead of it.

The chains behind the UniProt entries cited, without tags or fusion partners. Where a name states a change or a piece, a line headed by the entry shows the natural chain unless it says otherwise.
UniProt Q9Y6I9: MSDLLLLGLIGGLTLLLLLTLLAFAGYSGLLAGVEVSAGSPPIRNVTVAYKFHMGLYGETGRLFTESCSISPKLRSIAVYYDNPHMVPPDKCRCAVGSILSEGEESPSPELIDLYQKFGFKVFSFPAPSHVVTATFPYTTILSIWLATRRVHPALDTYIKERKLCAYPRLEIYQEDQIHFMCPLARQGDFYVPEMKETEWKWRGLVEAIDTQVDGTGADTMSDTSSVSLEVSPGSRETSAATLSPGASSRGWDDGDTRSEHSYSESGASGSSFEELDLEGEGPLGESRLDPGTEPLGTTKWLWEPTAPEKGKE
UniProt P11387: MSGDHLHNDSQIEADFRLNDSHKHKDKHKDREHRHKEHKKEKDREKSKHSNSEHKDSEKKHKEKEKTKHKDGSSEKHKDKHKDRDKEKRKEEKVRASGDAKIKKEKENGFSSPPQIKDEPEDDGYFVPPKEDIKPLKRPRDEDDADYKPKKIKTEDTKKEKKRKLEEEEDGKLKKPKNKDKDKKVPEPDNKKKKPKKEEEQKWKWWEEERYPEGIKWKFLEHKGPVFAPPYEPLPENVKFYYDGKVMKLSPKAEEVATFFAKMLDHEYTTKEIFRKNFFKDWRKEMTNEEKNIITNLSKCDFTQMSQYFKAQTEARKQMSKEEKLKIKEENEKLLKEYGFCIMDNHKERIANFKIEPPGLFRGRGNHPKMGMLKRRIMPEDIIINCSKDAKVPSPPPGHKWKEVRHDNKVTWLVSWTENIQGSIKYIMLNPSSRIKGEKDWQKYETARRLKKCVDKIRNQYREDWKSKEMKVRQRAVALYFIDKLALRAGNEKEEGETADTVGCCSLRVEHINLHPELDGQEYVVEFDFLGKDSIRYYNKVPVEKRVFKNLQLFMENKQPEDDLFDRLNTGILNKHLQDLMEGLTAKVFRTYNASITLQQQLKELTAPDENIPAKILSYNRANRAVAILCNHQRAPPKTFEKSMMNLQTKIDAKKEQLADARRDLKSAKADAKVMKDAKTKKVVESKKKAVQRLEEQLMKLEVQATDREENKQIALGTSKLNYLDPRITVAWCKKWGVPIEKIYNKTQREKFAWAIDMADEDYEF

Legend:
[1] = molecular target: His-tagged TEX264^WT without its hydrophobic N-terminus (ΔNT TEX264) (human) (UniProt Q9Y6I9); assay: pull-down; TEX264^WT coupled to HisPur Ni-NTA Magnetic Beads, incubated 2 h with recombinant TOP1; 137 mM NaCl, 20 mM Tris–HCl pH 7.0; both purified
[2] = molecular target: TEX264^SIM1*-FLAG (SIM1-mutated variant) (UniProt Q9Y6I9); assay: co-IP; anti-FLAG M2 agarose on lysates of HEK293 or ΔTEX264 HEK293 cells expressing FLAG-tagged TEX264 variants; Benzonase, ethidium bromide; cells treated with DMSO or CPT (25 nM, 1 h)
[3] = molecular target: TEX264^SIM2*-FLAG (SIM2-mutated variant) (UniProt Q9Y6I9); assay: as above
[4] = molecular target: recombinant p97-S tag (human) (UniProt P55072); assay: pull-down; p97-S tag coupled to S-protein Agarose, incubated 2 h with TEX264^WT, TEX264^ΔSHP and/or recombinant TOP1; 137 mM NaCl, 20 mM Tris–HCl pH 7.0, 0.5% Triton X-100; 4 °C coupling; both purified

- binding [1]: binds
Substance: recombinant TOP1 (from UniProt P11387 1-765)

- binding [2]: binds
- binding [3]: binds
Substance: Modified species of TOP1 (from UniProt P11387 1-765)

- binding [4]: binds
Substance: His-tagged TEX264^WT without its hydrophobic N-terminus (ΔNT TEX264) (from UniProt Q9Y6I9) (domain or fragment)
